Laboratory results published in article PMC4554459, “Paracoccus denitrificans possesses two BioR homologs having a role in regulation of biotin metabolism”.
Construct, isoform or probe ends are uncertain for at least one entry. Results from cells or extracts need not show a direct contact. Protein sequences can lack the tags named with them.

Target: T1, BioR1 (Paracoccus denitrificans PD1222) (UniProt A1B1Y8)
T1 sequence (looked up): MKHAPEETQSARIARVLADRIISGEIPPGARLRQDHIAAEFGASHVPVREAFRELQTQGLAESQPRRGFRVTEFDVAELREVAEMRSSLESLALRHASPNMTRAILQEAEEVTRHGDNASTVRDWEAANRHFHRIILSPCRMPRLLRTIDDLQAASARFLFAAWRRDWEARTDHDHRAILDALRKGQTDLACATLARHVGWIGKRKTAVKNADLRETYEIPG
Test: EMSA
Conditions: crude extract; ~0.2 pmol DIG-labeled probe with BioR (10-20 pmol BioR2 in 15 uL, Fig. 6) in Roche binding buffer, 15 min, room temperature; native 7% PAGE; protein in a lysate after overexpression; residues 1-222; protein details: 6xHis (pET28a); label: digoxigenin

Binding result, binds:
CTCTCTTGAGGAGGCAAAAATTATCTATAATTTGCCATTTAACGACCTGC (double strand) [bioBFDAZ_at (bioB_at) probe]
GGCGCTGACCGTTTTATAGATACTTCCACATGAGGC (double strand) [bioBFDAGC_pd probe]
GGTGCAGCATGAATTATCTATAATTCATGAAACACG (double strand) [bioR1_pd probe]
